Results deposited as PubChem BioAssay AID504791 (Drosophila RNAi Screening Center, 2011).
The screen tested about 23,000 reagents; below is an unselected part of those that have a named target and a result. Over the whole deposit, 199 (0.86%) are marked active. 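Plate-scaled ratios behind the calls are not deposited; printed light signals are raw; many rows marked increased or decreased are still called inactive.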 A plus sign joins genes that one reagent is predicted to hit. Further read-outs or replicates are left out here.

Assay: 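Factors in Argonaute-based small RNA production and activity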 (primary screen)
System: Drosophila S2-derived reporter cells
Knock-down reagent: long dsRNA against Drosophila genes, about 150-250 ng dsRNA per well (siRNA assay); about 80-120 ng (miRNA assay)
Time to read-out: about 5 days (siRNA assay); about 4 days (miRNA assay)
Treatment: copper sulfate induction of reporters: 25 µM (siRNA assay); 200 mM stated (miRNA assay), 1-2 days before reading
Measured: 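Per-well ratio of Renilla over firefly light, expressed relative to that plate's average ratio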
Reading the numbers: siRNA reporter hit score: higher = 3 marks a strong hit with raised ratio; -3 a strong hit with lowered ratio
Rule for the call: 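a well was a first-pass pick when its plate-scaled ratio rose above 1.5 (siRNA assay) or 1.6 (miRNA assay), or dropped below 0.6; a gene counted only if two separate dsRNAs agreed on retest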

gene | dsRNA | siRNA reporter hit score | stable siRNA reporter change | miRNA reporter change | stable assay Renilla, run 1 (luminescence) | activity call
CCHa1 | DRSC14821 | – | – | – | 4956 | inactive
CG2871 | DRSC18230 | – | – | – | 2964 | inactive
CG2871 | DRSC21719 | – | – | – | 8467 | inactive
HmgD | DRSC04619 | – | – | – | 6931 | inactive
mRpL38 | DRSC19734 | – | – | – | 5643 | inactive
lic | DRSC20347 | – | – | – | 5875 | inactive
Taf13 | DRSC02106 | – | – | – | 6002 | inactive
CG4594 | DRSC02762 | – | – | – | 7947 | inactive
CG18284 | DRSC02661 | – | – | – | 6371 | inactive
CG18284 | DRSC20756 | – | – | – | 4679 | inactive
Afg3l2 | DRSC10657 | – | – | – | 7905 | inactive
mRpL21 | DRSC11100 | – | – | – | 6922 | inactive
CG11964 | DRSC14447 | – | – | – | 11563 | inactive
oys | DRSC05203 | – | – | – | 5715 | inactive
oys | DRSC06751 | – | – | – | 8168 | inactive
CG5758 | DRSC02889 | – | – | – | 4495 | inactive
CG5758 | DRSC02890 | – | – | – | 7366 | inactive
TotA | DRSC13448 | – | – | – | 4979 | inactive
CG5339 | DRSC04496 | – | – | – | 13892 | inactive
CG12426 | DRSC14516 | – | – | – | 6570 | inactive
CG32081 | DRSC09861 | – | – | – | 7918 | inactive
CG18493 | DRSC15334 | – | – | – | 8630 | inactive
shrb | DRSC07061 | – | – | – | 8714 | inactive
CG10602 | DRSC02075 | – | – | – | 1.71e5 | inactive
Ir92a | DRSC15111 | – | – | – | 6856 | inactive
nito | DRSC05943 | – | – | reporter ratio lowered past the hit cutoff | 3304 | active
CG14961 | DRSC08420 | – | – | – | 5824 | inactive
VAChT + ChAT | DRSC13312 | – | – | – | 4319 | inactive
CG11327 | DRSC02146 | – | – | – | 7390 | inactive
fl(2)d | DRSC07620 | – | reporter ratio raised past the hit cutoff | – | 7210 | inactive
Eig71Ei | DRSC11156 | – | – | – | 7056 | inactive
CG13796 + CG31904 | DRSC22161 | – | – | – | 9938 | inactive
CG9815 | DRSC04567 | – | – | – | 5342 | inactive
Pglym78 | DRSC16787 | – | – | – | 7347 | inactive
Polr1B | DRSC00780 | – | – | – | 11722 | inactive
CG12446 | DRSC20618 | – | – | – | 4528 | inactive
CG17746 | DRSC08521 | – | – | – | 8975 | inactive
CG17746 | DRSC23333 | – | – | – | 4880 | inactive
vvl | DRSC11409 | – | – | – | 5575 | inactive
CG9512 | DRSC20189 | – | – | – | 9131 | inactive
CG10931 | DRSC06015 | – | – | – | 5575 | inactive
CG7084 | DRSC16194 | – | – | – | 7748 | inactive
sinah | DRSC09910 | – | – | – | 8679 | inactive
sinah | DRSC22181 | – | – | – | 8765 | inactive
CG14000 + bchs | DRSC02333 | – | – | reporter ratio raised past the hit cutoff | 8782 | inactive

Copied from the listing (15 entries):
gene | dsRNA | siRNA reporter hit score | stable siRNA reporter change | miRNA reporter change | stable assay Renilla, run 1 (luminescence) | activity call
mRpL38 | DRSC19734 | – | – | – | 5643 | inactive
lic | DRSC20347 | – | – | – | 5875 | inactive
Taf13 | DRSC02106 | – | – | – | 6002 | inactive
CG4594 | DRSC02762 | – | – | – | 7947 | inactive
CG18284 | DRSC02661 | – | – | – | 6371 | inactive
CG18284 | DRSC20756 | – | – | – | 4679 | inactive
Afg3l2 | DRSC10657 | – | – | – | 7905 | inactive
mRpL21 | DRSC11100 | – | – | – | 6922 | inactive
CG11964 | DRSC14447 | – | – | – | 11563 | inactive
oys | DRSC05203 | – | – | – | 5715 | inactive
oys | DRSC06751 | – | – | – | 8168 | inactive
CG5758 | DRSC02889 | – | – | – | 4495 | inactive
CG5758 | DRSC02890 | – | – | – | 7366 | inactive
TotA | DRSC13448 | – | – | – | 4979 | inactive
CG5339 | DRSC04496 | – | – | – | 13892 | inactive

More results:
gene | dsRNA | siRNA reporter hit score | stable siRNA reporter change | miRNA reporter change | stable assay Renilla, run 1 (luminescence) | activity call
CG43999 | DRSC14605 | – | – | – | 7262 | inactive
Axn | DRSC14120 | – | – | – | 4351 | inactive
larp | DRSC14728 | – | – | – | 6159 | inactive
larp | DRSC16984 | – | – | – | 6835 | inactive
larp | DRSC21856 | – | – | – | 9439 | inactive
obst-G | DRSC11103 | – | – | – | 5755 | inactive
CG5614 | DRSC15845 | – | – | – | 3835 | inactive
Cnot4 | DRSC02830 | – | – | – | 4935 | inactive
Cnot4 | DRSC02831 | – | – | – | 4456 | inactive
CG14286 | DRSC14767 | – | – | – | 7038 | inactive
Cpr30B | DRSC02728 | – | – | – | 9741 | inactive
Ggt-1 | DRSC19993 | – | – | – | 6867 | inactive
miple2 | DRSC08723 | – | – | – | 7102 | inactive
mol | DRSC01431 | – | reporter ratio raised past the hit cutoff | – | 3515 | inactive
mol | DRSC01912 | – | – | – | 5958 | inactive
mol | DRSC02479 | – | – | – | 6942 | inactive
rswl | DRSC06923 | – | – | – | 8003 | inactive
CG33017 | DRSC06573 | – | – | – | 7091 | inactive
CG33017 | DRSC06574 | – | – | – | 6263 | inactive
CCDC151 | DRSC10131 | – | – | – | 7312 | inactive
CG17712 | DRSC00266 | – | – | – | 11238 | inactive
ItgaPS4 | DRSC06630 | – | – | – | 6502 | inactive
CG16711 | DRSC10220 | – | – | – | 5772 | inactive
CG42686 (retired record) | DRSC15247 | – | – | – | 4998 | inactive
CG42686 (retired record) | DRSC15248 | – | – | – | 7286 | inactive
CG42686 (retired record) | DRSC22995 | – | – | – | 3628 | inactive
norpA | DRSC18806 | – | – | – | 9877 | inactive
CG1440 | DRSC17915 | – | – | – | 7715 | inactive
IntS3 | DRSC21215 | – | – | – | 7107 | inactive
Peritrophin-A | DRSC20570 | – | – | – | 7106 | inactive
CG7289 | DRSC00697 | – | – | – | 13160 | inactive
CG14655 | DRSC12241 | – | – | – | 5404 | inactive
mab-21 | DRSC18791 | – | – | – | 6339 | inactive
CG12942 | DRSC06253 | – | – | – | 8694 | inactive
Fmr1 | DRSC16674 | – | – | – | 6467 | inactive
CG10804 | DRSC17764 | – | – | – | 7619 | inactive
Irbp18 | DRSC10612 | – | – | reporter ratio lowered past the hit cutoff | 4980 | active
CG14421 | DRSC17918 | – | – | – | 6935 | inactive
cGlr2 | DRSC04017 | – | – | – | 4995 | inactive
Ir64a | DRSC09759 | – | – | – | 5006 | inactive
Ir64a | DRSC09760 | – | – | – | 5975 | inactive
emp | DRSC04019 | – | – | – | 5407 | inactive
emp | DRSC04683 | – | – | – | 10021 | inactive
mad2 | DRSC10274 | – | – | – | 6704 | inactive
omd | DRSC16507 | -3 | – | – | 14819 | inactive
Rab4 | DRSC07524 | – | – | – | 12383 | inactive
CG12935 | DRSC06248 | – | – | – | 8299 | inactive
ND-24L | DRSC10650 | – | – | – | 8051 | inactive
RhoU | DRSC17635 | – | – | – | 5519 | inactive
RhoU | DRSC17803 | – | – | – | 4312 | inactive
RhoU | DRSC17804 | – | reporter ratio raised past the hit cutoff | – | 5020 | active
RhoU | DRSC22159 | – | – | – | 8580 | inactive
RhoU | DRSC22396 | – | – | – | 4567 | inactive
CG13313 | DRSC09984 | – | – | – | 7815 | inactive
CG30356 | DRSC05119 | – | – | – | 5055 | inactive
mthl6 | DRSC10234 | – | – | – | 5572 | inactive
CG18558 | DRSC00525 | – | – | – | 8174 | inactive
CG18558 | DRSC21593 | – | – | – | 9370 | inactive
Fign | DRSC00592 | – | – | – | 25405 | inactive
CG31664 | DRSC22084 | – | – | – | 9754 | inactive
Eig71Ef | DRSC11153 | – | – | – | 7374 | inactive
